{"sequences": {"note": "The chains behind the UniProt entries cited, without tags or fusion partners. Where a name states a change or a piece, a line headed by the entry shows the natural chain unless it says otherwise.", "UniProt P35991": "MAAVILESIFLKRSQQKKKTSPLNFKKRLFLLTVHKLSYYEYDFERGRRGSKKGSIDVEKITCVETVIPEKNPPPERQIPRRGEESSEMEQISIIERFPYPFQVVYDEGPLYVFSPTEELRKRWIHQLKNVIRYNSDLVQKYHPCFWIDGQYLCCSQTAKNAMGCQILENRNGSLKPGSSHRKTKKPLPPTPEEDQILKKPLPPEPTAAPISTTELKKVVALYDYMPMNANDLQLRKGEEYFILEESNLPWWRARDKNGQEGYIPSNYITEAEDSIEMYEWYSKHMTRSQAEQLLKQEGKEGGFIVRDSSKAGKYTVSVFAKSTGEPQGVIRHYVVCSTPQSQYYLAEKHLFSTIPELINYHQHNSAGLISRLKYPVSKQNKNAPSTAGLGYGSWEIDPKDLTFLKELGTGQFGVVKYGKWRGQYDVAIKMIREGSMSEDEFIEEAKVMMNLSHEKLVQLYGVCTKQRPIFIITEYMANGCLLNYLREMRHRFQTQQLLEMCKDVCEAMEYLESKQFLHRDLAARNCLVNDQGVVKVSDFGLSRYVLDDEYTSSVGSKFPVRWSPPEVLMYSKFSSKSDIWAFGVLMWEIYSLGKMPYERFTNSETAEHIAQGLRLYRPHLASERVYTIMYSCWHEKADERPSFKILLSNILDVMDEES", "UniProt Q06187, whole entry C481S": "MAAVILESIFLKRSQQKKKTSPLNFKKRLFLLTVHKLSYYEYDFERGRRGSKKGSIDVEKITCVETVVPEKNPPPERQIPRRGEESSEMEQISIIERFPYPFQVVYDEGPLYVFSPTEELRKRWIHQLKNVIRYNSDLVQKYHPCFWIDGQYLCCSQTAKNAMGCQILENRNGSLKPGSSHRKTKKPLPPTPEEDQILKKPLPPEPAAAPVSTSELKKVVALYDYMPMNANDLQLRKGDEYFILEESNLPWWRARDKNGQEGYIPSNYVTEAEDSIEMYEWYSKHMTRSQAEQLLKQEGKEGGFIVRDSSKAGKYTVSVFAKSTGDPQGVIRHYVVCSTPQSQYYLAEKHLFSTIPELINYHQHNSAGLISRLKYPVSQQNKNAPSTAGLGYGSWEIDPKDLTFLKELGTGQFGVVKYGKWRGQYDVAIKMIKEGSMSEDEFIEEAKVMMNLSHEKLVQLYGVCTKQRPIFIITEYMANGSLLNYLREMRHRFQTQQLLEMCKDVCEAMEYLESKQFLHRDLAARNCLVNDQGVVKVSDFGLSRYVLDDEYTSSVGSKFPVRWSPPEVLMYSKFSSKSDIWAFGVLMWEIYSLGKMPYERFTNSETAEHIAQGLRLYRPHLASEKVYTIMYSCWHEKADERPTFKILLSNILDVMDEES"}, "source": "patent US20240018147A1", "about": "“SALT OF COMPOUND FOR DEGRADING BTK, CRYSTAL FORM THEREOF, AND USE THEREOF IN MEDICINE” (HAISCO PHARMACEUTICALS PTE. LTD., priority 2020, published 2024)", "key": {"BTK protein": {"molecular_target": "BTK protein (Mus musculus (Mouse), UniProt P35991)", "assay": "Detection of BTK protein degradation in spleen of mice", "format": "in vivo", "conditions": "female ICR mice, intragastric, 3 consecutive days; conclusion in words", "description": "Female ICR mice, 6-8 weeks old, were purchased from Beijing Vital River Laboratory Animal Technology Co., Ltd., and the experiment was started after 3 days of adaptation. After 3 consecutive days of intragastric administration of compounds at different doses, the spleens of mice were taken. The spleen cells were collected, lysed on ice for 15 min by adding RIPA lysis buffer (Beyotime, Cat. P0013B), and then centrifuged at 12000 rpm at 4° C. for 10 min. The protein sample of the supernatant was collected, subjected to protein quantification by using a BCA kit (Beyotime, Cat. P0009) and then diluted to 0.25 mg/mL. The expressions of BTK (CST, Cat. 8547S) and the internal reference R-actin (CST, Cat. 3700S) were detected by using a fully automated western blot quantitative analyzer (Proteinsimple). The expression level of BTK relative to the internal reference was calculated by using Compass software, and the DD50 value was calculated by using Origen9.2 software according to formula (2). Specifically, the BTKadministration denoted the expression level of BTK in administration groups at different doses, and the BTKvehicle denoted the expression level of BTK in the vehicle control group.\nBTK %=BTKadministration/BTKvehicle×100% formula (2)"}, "BTK": {"molecular_target": "BTK (Homo sapiens (Human), UniProt Q06187)", "assay": "Detection of BTK degradation in Mino cells", "format": "cell-based", "conditions": "conclusion in words", "description": "The Mino human mantle cell lymphoma cell line was purchased from ATCC and cultured under conditions of RPMI-1640+15% FBS+1% double antibody in a 37° C., 5% CO2 incubator. Cells were plated in a 6-well plate, with 5×10^5 cells/well. After plating, compounds at different concentrations were added and cultured in a 37° C., 5% CO2 incubator for 48 h. After culturing, the cells were collected. The cells were lysed on ice for 15 minutes by adding RIPA lysis buffer (Beyotime, Cat. P0013B) and centrifuged at 12000 rpm at 4° C. for 10 minutes. The protein sample of the supernatant was collected, subjected to protein quantification by using a BCA kit (Beyotime, Cat. P0009) and then diluted to 0.25 mg/mL. The expressions of BTK (CST, Cat. 85475) and the internal reference β-actin (CST, Cat. 37005) were detected using a fully automated western blot quantitative analyzer (Proteinsimple) with a kit (Protein simple, Cat. SM-W004). The expression level of BTK relative to the internal reference was calculated by using Compass software, and the DC50 value was calculated by using Origen9.2 software according to formula (1). Specifically, the BTKadministration denoted the expression level of BTK in administration groups at different doses, and the BTKvehicle denoted the expression level of BTK in the vehicle control group.\nBTK %=BTKadministration/BTKvehicle×100 formula (1)"}, "BTK C481S": {"molecular_target": "BTK C481S (Homo sapiens (Human), UniProt Q06187, C481S)", "assay": "In vitro kinase detection, BTK C481S", "format": "biochemical", "conditions": "conclusion in words"}, "BTK wt": {"molecular_target": "BTK wt (Homo sapiens (Human), UniProt Q06187)", "assay": "In vitro kinase detection, BTK wt", "format": "biochemical", "conditions": "conclusion in words"}}, "note": "For at least one compound, name, drawing or mass did not settle the structure."}
{"smiles": "Nc1ncnc2c1c(-c1ccc(Oc3ccccc3)cc1)nn2C1CCN(C2CN(C3CN(c4ccc5c(c4)C(=O)N(C4CCC(=O)NC4=O)C5=O)C3)C2)CC1", "note": "(stereo not shown) [Compound 1, 5-[3-[3-[4-[4-amino-3-(4-phenoxyphenyl)pyrazolo[3,4-d]pyrimidin-1-yl]-1-piperidyl]azetidin-1-yl]azetidin-1-yl]-2-(2,6-dioxo-3-piperidyl)isoindoline-1,3-dione]", "values": [{"measurement": "degradation effect on BTK proteins in spleens of mice", "setting": "BTK protein", "result": "significant degradation effect"}, {"measurement": "degradation effect on BTK in Mino cells", "setting": "BTK", "result": "significant degradation effect"}, {"measurement": "inhibitory effect on BTK C481S kinase", "setting": "BTK C481S", "result": "significant inhibitory effect"}, {"measurement": "inhibitory effect on BTK wt kinase", "setting": "BTK wt", "result": "significant inhibitory effect"}]}
